Assay results reported in PubChem BioAssay AID662 (National Center for Advancing Translational Sciences (NCATS), 2007).
The other results are listed elsewhere or left out. The main result of the screen is listed elsewhere. These columns were measured beside it and carry no call. Compounds called inactive in the main read-out are mostly missing here. Words in brackets tell the shape of the fitted curve; partial curves, single points and poor fits give uncertain potencies.

experiment: Cell signaling CRE-BLA (Fsk stim); conditions: CHO CRE-bla reporter (cAMP response element driving beta-lactamase), forskolin EC10, beta-lactamase ratio; measured here: 460 nm blue channel
Summary of the method: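 Using CellSensor CRE-bla CHO cells in Opti-MEM with 0.5% dialyzed FBS, compounds were titrated with EC10 NKH 477 for 3 h at 37 °C. CCF4 ratio (460/530 nm) gave %Activity; AC50 derived.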

Structure (SMILES)	AC50
CCn1c(SCc2nc(-c3ccc(OC)c(OC)c3)no2)nnc1-c1cccs1	25.1 µM [rising, single point]
CCN(Cc1ccccc1)S(=O)(=O)c1ccc(C(=O)Nc2nnc(-c3ccccc3OC)o2)cc1	0.00398 µM [falling, full curve]
CCOC(=O)Cc1nnc(NC(=O)c2ccccc2OC)s1	25.1 µM [rising, single point]
CCN(CC)CCNC(=O)CS(=O)Cc1nc(-c2ccccc2Cl)oc1C (stereo not drawn)	0.00398 µM [falling, full curve, poor fit]
COC(=O)Nc1cc(C)nc2ccccc12	25.1 µM [rising, single point]
COC(=O)CSc1nnc(CSc2nc(C)cc(C)n2)n1Cc1ccco1	12.6 µM [rising, partial curve]
O=C(NC1CCN(C(=O)N2c3ccccc3Sc3ccccc32)CC1)c1ccco1	10 µM [falling, partial curve, poor fit]
Cc1cc(NC(=O)c2cc(-c3ccccn3)nc3ccccc23)no1	0.126 µM [rising, full curve, poor fit]
CCOC(=O)c1sc2nc(CC(=O)OC)nc(NCCN3CCOCC3)c2c1C	12.6 µM [rising, single point]
COc1ccc(-c2nnc(SCc3ccccc3F)o2)cc1OC	10 µM [rising, partial curve]
CC(C)Nc1nnc(SCC(=O)Nc2ccc(F)cc2)s1	0.00316 µM [falling, full curve, poor fit]
CCOC(=O)c1cnc(SCc2nc(N)nc(Nc3ccc(F)cc3)n2)nc1N	7.94 µM [rising, partial curve]
COc1ccc(Cl)cc1NC(=O)C1CSC(c2ccncc2)=N1 (stereo not drawn)	6.31 µM [rising, partial curve]
O=c1cc(-c2ccncc2)oc2ccccc12	10 µM [falling, partial curve]
CCOC(=O)C1Cc2ccccc2C(=O)O1 (stereo not drawn)	1 µM [falling, single point]
COC(=O)c1cc(-c2ccc3c(c2)OCO3)nc2ccccc12	12.6 µM [rising, partial curve]
CCOC(=O)c1cnc2c(C)cccc2c1NCc1ccco1	10 µM [rising, partial curve]
CCOC(=O)c1ccccc1NC(=O)CC1Nc2ccccc2NC1=O (stereo not drawn)	10 µM [rising, partial curve]
COc1ccc2oc(=O)c(C(=O)N3CCN(c4ccccc4)CC3)cc2c1	0.1 µM [falling, partial curve, poor fit]
CN1CCN(c2ncc3ncc(=O)n(Cc4cccs4)c3n2)CC1	12.6 µM [rising, partial curve]
N#Cc1cccc(-c2nc(NCCN3CCOCC3)c3ccccc3n2)c1	10 µM [rising, partial curve]
CSc1nnc2c3ccccc3n(CCc3ccccc3)c2n1	0.501 µM [rising, partial curve]
CCOC(=O)N1CCN(C(=O)CSc2nc3c(cnn3-c3ccc(C)cc3)c(=O)[nH]2)CC1	10 µM [rising, partial curve]

Rewritten with bars between the fields: three of the compounds above
Structure (SMILES) | AC50
CN1CCN(c2ncc3ncc(=O)n(Cc4cccs4)c3n2)CC1 | 12.6 µM [rising, partial curve]
N#Cc1cccc(-c2nc(NCCN3CCOCC3)c3ccccc3n2)c1 | 10 µM [rising, partial curve]
CSc1nnc2c3ccccc3n(CCc3ccccc3)c2n1 | 0.501 µM [rising, partial curve]

The list continues:

Structure (SMILES)	AC50
CN1CCN(c2ccc(Cl)cc2NC(=O)c2cccc(S(=O)(=O)N(C)C)c2)CC1	5.01 µM [rising, full curve]
c1coc(Cn2c(SCc3nc4ccccc4[nH]3)nnc2-c2cnccn2)c1	12.6 µM [falling, single point]
COc1ccccc1C(=O)n1nc(-c2ccco2)nc1N	0.00794 µM [falling, full curve, poor fit]
O=C1NCN(c2ccccc2)C12CCN(CCCC(c1ccc(F)cc1)c1ccc(F)cc1)CC2	10 µM [falling, single point]
O=S(=O)(c1cccc(-c2cn3cccnc3n2)c1)N1CCOCC1	25.1 µM [rising, single point]
CN(C)C(=O)c1ccc(-c2ccc3ncnc(NC4CC4)c3c2)cc1	7.94 µM [rising, partial curve]
O=C1CC(Sc2nnnn2C2CCCCC2)C(=O)N1c1ccccc1 (stereo not drawn)	1 µM [rising, partial curve]
Cn1nc(C(=O)Nc2cccnc2)c2ccccc2c1=O	12.6 µM [rising, partial curve]
O=C(c1cccc(C(=O)N2CCN(c3ccccc3F)CC2)c1)N1CCN(c2ccccc2F)CC1	0.316 µM [rising, partial curve, poor fit]
CC(C)(C)C(=O)OCOC(=O)[C@@H]1N2C(=O)[C@@H](NC(=O)[C@H](N)c3ccccc3)[C@H]2SC1(C)C	10 µM [falling, partial curve, poor fit]
CCOC(=O)C1CCN(Cc2nc3ccccc3c(=O)n2-c2ccc(OCC)cc2)CC1	10 µM [rising, partial curve]
Cc1cc(=O)oc2cc(NC(=O)C3COc4ccccc4O3)ccc12 (stereo not drawn)	10 µM [rising, partial curve]
O=c1c(-c2cccs2)nc2cnc(N3CCOCC3)nc2n1-c1ccccc1	2.51 µM [rising, full curve]
Cc1cc(Cl)ccc1OCCCC(N)=O	25.1 µM [rising, single point]
Cn1c(CNC(=O)Nc2cccc(Cl)c2)nnc1SCc1ccccc1	0.0501 µM [falling, full curve, poor fit]
CCn1c2c(c3cc(Cl)ccc31)CCCC2=O	10 µM [rising, partial curve]
CCN(CC)CCCNC(=O)c1nn(-c2ccccc2OC)c(=O)c2ccccc12	3.98 µM [falling, partial curve]
O=C(NCN1CCN(c2ccccc2F)CC1)c1ccccc1	0.251 µM [falling, full curve]
CCCn1nc(NC(=O)c2ccncc2)c2cc3ccccc3nc21	7.94 µM [rising, partial curve]
COC(=O)c1[nH]cnc1C(=O)c1ccccc1	10 µM [falling, partial curve]
CCNC(=O)c1c(O)c2ccccc2[nH]c1=O	10 µM [rising, partial curve]
COc1ccccc1C(=O)NCCC(=O)N1CC(=O)Nc2ccccc21	5.01 µM [falling, single point]
O=c1c(-c2ccccc2)nc2cnc(Nc3ccccc3)nc2n1C[C@H]1CCCO1	1.58 µM [rising, full curve]

Structure (SMILES)	AC50
CCCCn1c(SCC(=O)NCCc2ccc(OC)c(OC)c2)nc2c1c(=O)n(C)c(=O)n2C	0.398 µM [falling, partial curve]
CNC/C(Cl)=N/S(=O)(=O)c1ccc(C)cc1	0.1 µM [rising, single point]
O=C(O)CCSc1nc2ccccc2c(=O)[nH]1	2 µM [falling, partial curve]
Clc1ccccc1-c1ccc2ncnc(NCc3cccnc3)c2c1	12.6 µM [rising, partial curve]
COc1ccc(-n2c(=O)c(-c3cn(C)c4ccccc34)nc3cncnc32)cc1	10 µM [rising, partial curve]
COCCOC(=O)C1=C(C)NC(=O)NC1c1cn(-c2ccccc2)nc1-c1cccs1 (stereo not drawn)	25.1 µM [rising, single point]
Cc1ccnc(NC(=O)COC(=O)C2COc3ccccc3O2)n1 (stereo not drawn)	0.0794 µM [falling, full curve, poor fit]
N#Cc1nc(-c2ccccc2F)oc1N1CCCC1	25.1 µM [rising, single point]
C=C(C)C(C)(C#CCN1CCCC1)OC(C)=O (stereo not drawn)	3.98 µM [falling, single point]
O=C(COC(=O)C1CC2C=CC1C2)NCc1ccco1 (stereo not drawn)	5.01 µM [rising, single point]
CCN(CC)S(=O)(=O)c1ccc2[nH]cc(C(=O)NCCc3ccc(OC)c(OC)c3)c(=O)c2c1	2 µM [rising, full curve]
CCOC(=O)C(CC)n1cnc2c(cnn2-c2ccc(Cl)cc2)c1=O (stereo not drawn)	12.6 µM [rising, single point]
CCCCn1c(=NC(=O)c2ccc3c(c2)OCO3)c(C#N)cc2c(=O)n3cccc(C)c3nc21	1 µM [rising, partial curve, poor fit]
c1ccc2c(c1)NC1(CCCCC1)n1c-2nc2ccccc21	0.794 µM [rising, full curve, poor fit]
COCCn1c(=O)c(-c2cccc(C#N)c2)nc2cnc(OC)nc21	12.6 µM [rising, partial curve]
COc1ccc(OC)c(NC(=O)CC(Cc2ccccc2OC)C(=O)O)c1 (stereo not drawn)	0.0398 µM [falling, full curve, poor fit]
CCOc1ccc(C2=CS/C(=C(\C#N)c3nnc4n3CCCCC4)N2CC)cc1	25.1 µM [falling, single point]
Cc1ccsc1C=Nc1ccc(O)cc1	25.1 µM [falling, single point]
Nc1cc(OC(=O)c2cccs2)nn1S(=O)(=O)c1ccccc1	0.00631 µM [falling, full curve, poor fit]
O=C(CCn1c(=S)[nH]c2ccccc2c1=O)N1CCN(c2ccccn2)CC1	12.6 µM [rising, partial curve]
CCOc1ccc(NC(=O)N2CCC(n3c(=O)[nH]c4ccccc43)CC2)cc1	12.6 µM [falling, single point]
CCOc1ccc2[nH]c(=O)c(C(c3nnnn3Cc3ccco3)N3CCCC(C)C3)cc2c1 (stereo not drawn)	15.8 µM [rising, single point]
